Values quoted from earlier work, collected in patent US7794934B2, “Predicting negative symptom change during drug treatment” (Centre for Addiction and Mental Health, priority 2006, dated 2010).
At least one structure is not confirmed: it was looked up by name or label, or the drawing left a doubt.

Key:
[1] = system: neurotoxicity induced by NMDA receptor antagonists; conditions: Farber 1993, 1996; Olney 1994; cited from earlier work
[2] = system: PCP-induced social withdrawal; conditions: rats (Corbett et al. 1995); cited from earlier work

## Cc1cc2c(s1)Nc1ccccc1N=C2N1CCN(C)CC1 [olanzapine]
[1]
  prevention of neurotoxicity induced by NMDA receptor antagonists: strongly prevented
[2]
  reversal of PCP-induced social withdrawal: reversed
